Measured values published in PMC12040169 (PLOS Biology, 2025).
The list shows a part of the results.

tested on: T1, CTL2-GFP (C. trachomatis L2/434/Bu, GFP-expressing); set-up: species or system HeLa; Intracellular C. trachomatis growth in HeLa cells, bulk GFP fluorescence relative to DMSO; conditions: bulk GFP, single well; 28.5 h, 10 µM; inhibitor
T1 construct: L2/434/Bu, GFP-expressing

Row | SMILES | % of control remaining
1 | CCn1nc(-c2ccc(C)o2)nc1CC1NC(=O)c2ccccc21 (stereo not drawn) [CBK306834] | 114.655%
2 | Nc1nnc(C2CCCCC2)s1 [CBK039123] | 91.8607%
3 | COCCCNS(=O)(=O)c1ccc(-n2ncc(Cl)c(Cl)c2=O)cc1 [CBK305039] | 38.8397%
4 | CN1CCC(N2CCN(C(=O)Nc3ccc(Cl)cc3)CC2)CC1 [CBK155899] | 97.1157%
5 | Cc1cc2ccccc2n2c(=O)n(CC(=O)NC3CCCC3)nc12 [CBK283884] | 128.488%
6 | CC(C)c1ccc(S(=O)(=O)NCc2c(F)ccc(Cl)c2F)cc1 [CBK043484] | 98.0631%
7 | O=C([C@H]1C[C@@H](O)[C@H](O)[C@@H]2N=C(Nc3ccc4c(c3)OCO4)S[C@@H]21)N1CCCCC1 [CBK288953] | 123.703%
8 | CC(C)Nc1nc2ccccc2nc1OCc1ccsc1 [CBK115660] | 160.428%
9 | Cc1ccc(OC(C)C(=O)N2CCCc3c(cnn3C)C2)cc1 (stereo not drawn) [CBK282242] | 129.927%
10 | Cc1cccc(C)c1-c1cn2ccnc2c(N2CCN(c3ccccn3)CC2)n1 [CBK037389] | 121.25%
11 | O=S(=O)(c1c(Cl)cc(C(F)(F)F)cc1Cl)N1CCOCC1 [CBK057736] | 113.18%
12 | CCc1nnsc1C(=O)N1CCc2[nH]c3c(C)cccc3c2C1 [CBK281655] | 138.317%
13 | Cc1ccc(C2C(C(=O)c3ccc(Cl)cc3)=C(O)C(=O)N2CCCN2CCOCC2)o1 (stereo not drawn) [CBK264514] | 123.069%
14 | COc1cncc(-c2cnc3[nH]c(=O)n([C@H](CO)C(C)C)c3n2)c1 [CBK064977] | 110.442%
15 | COc1coc(CN2C(=O)COc3cccnc32)cc1=O [CBK307126] | 78.8149%
16 | O=C(O)C1CC1(C(=O)O)C(=O)O (stereo not drawn) [CBK261009] | 80.5401%
17 | COc1ccc(-c2nnc(SCC(=O)c3ccccc3)o2)cc1 [CBK069390] | 101.967%
18 | CCOC(=O)N1CCC(NC(=O)N2CCCC(C(=O)N(CC)CC)C2)CC1 (stereo not drawn) [CBK156159] | 104.723%
19 | O=C(CSc1nc2ccccc2c(=O)n1Cc1ccccc1)c1ccc(Br)cc1 [CBK262700] | 109.873%
20 | Cc1cccc2c1CC(=O)NC21CCN(CC(=O)c2ccc(F)cc2)CC1 [CBK039946] | 111.375%
21 | CC(=O)N1CCC(N[C@H]2C[C@@H](Cc3cc(CN4CCCCC4)on3)C2(C)C)CC1 [CBK289699] | 176.606%
22 | O=C(CC(CN1CCN(CCO)CC1)C(=O)O)Nc1ccccc1F (stereo not drawn) [CBK286790] | 126.225%
23 | Nc1n[nH]c(CCCc2nc(N)n[nH]2)n1 [CBK261016] | 94.5869%
24 | COc1ccc(-c2cc(N3CCC(N4CCCCC4)CC3)ncn2)cc1OC [CBK037752] | 104.897%
25 | O=C(O)c1cc(NCc2cccc(F)c2F)n[nH]1 [CBK287006] | 135.407%
26 | Cc1nnc(O)c2c(C)n(-c3ccc(Br)cc3)nc12 [CBK008726] | 136.062%

Row | SMILES | % of control remaining
27 | O=C(Nc1cccc(C(=O)O)c1)Nc1cccc(-c2ccccc2)c1 [CBK155451G] | 65.3581%
28 | CCC(=O)N1CCCC(c2nnc(-c3cccs3)o2)C1 (stereo not drawn) [CBK283060] | 152.23%
29 | CSc1nnc(CC2CCN(C(=O)c3cccc(N)c3)CC2)n1C [CBK307339] | 172.018%
30 | CN(C)C(=O)C1(Cc2ccccc2-c2cccs2)CCN(C(=O)Cc2ccccc2)CC1 [CBK285687] | 109.338%
31 | COc1ccc(S(=O)(=O)N(C)CC(=O)O)cc1C [CBK267176] | 123.99%
32 | CCCN(C(C)C(=O)N(C)C)S(=O)(=O)c1ccc(Cl)cc1 (stereo not drawn) [CBK016123] | 100%
33 | Cc1cccc(OCc2nc3c4c5c(sc4ncn3n2)CCCCC5)c1C [CBK265284] | 123.427%
34 | O=C(O)CCN1CCN(S(=O)(=O)c2ccccc2)CC1 [CBK269402] | 144.656%
35 | COc1ccc(C2(C(=O)N[C@H]3CC[C@H](O)CC3)CC2)cc1 [CBK149840] | 115.079%
36 | O=C(c1c(F)cc(-c2cncc(-c3ccc(O)cc3)n2)cc1F)N1CCOCC1 [CBK131973] | 139.907%
37 | CC(C)CN(CC(C)C)C(=O)Cn1cc([N+](=O)[O-])cc(C(N)=O)c1=O [CBK297784] | 152.256%
38 | CC(C)C(=O)N1CC2(CCN(Cc3ccc(Cl)c(Cl)c3)CC2)c2ccccc21 [CBK126715] | 95.8212%
39 | O=C(Cc1cccc(F)c1)N1CCC(O)(c2ccccn2)CC1 [CBK283586] | 148.28%
40 | O=C(NC1CCS(=O)(=O)C1)c1cc(-c2cccnc2)cnc1NCc1ccc2c(c1)OCO2 (stereo not drawn) [CBK076455] | 142.408%
41 | Cc1ccc(NC2=NC(C(=O)Nc3ccc(C)c(C)c3)CC(=O)N2)cc1 (stereo not drawn) [CBK266718] | 116.859%
42 | Cc1ccc(S(=O)(=O)NC(=O)N2CC3(C)CC2CC(C)(C)C3)cc1 (stereo not drawn) [CBK023512] | 107.06%
43 | OC(CN1CCN(c2ccc(C(F)(F)F)cn2)CC1)c1ccc2c(c1)OCCO2 (stereo not drawn) [CBK074707] | 84.3393%
44 | COc1ccc(OC)c(C(O)CN2CCCC(C(=O)N3CCCCCC3)C2)c1 (stereo not drawn) [CBK286286] | 104.354%
45 | COc1ccc(C(=O)N2CCC3(CCN(CCCCC4NC(=O)NC4=O)C3)C2)cc1OC (stereo not drawn) [CBK132169] | 137.653%
46 | O=C(NCCc1c[nH]c2ccccc12)c1cc(Br)cnc1N1CCOCC1 [CBK076224] | 127.353%
47 | Cn1ccnc1C1(O)CCN(C(=O)CCc2ccccc2)CC1 [CBK283542] | 127.973%
48 | Clc1ccc(-c2nc(-c3ccncc3)no2)c(Cl)c1 [CBK262615] | 103.637%
49 | C=CCN1C(=O)CC2(C1=O)C(=O)N(C)c1ccc(Cl)cc12 (stereo not drawn) [CBK075242] | 96.7644%
50 | COc1ccc(OC(C)C(=O)Nc2cc3oc4ccccc4c3cc2OC)cc1 (stereo not drawn) [CBK266751] | 113.889%
51 | O=c1[nH]c(=O)c2cc(S(=O)(=O)N3CCc4[nH]c5ccccc5c4C3)ccc2[nH]1 [CBK285949] | 103.869%
52 | CCc1nc2ccc(C(=O)NCCN3CCOCC3)cn2c1N(C)Cc1cc2ccccc2s1 [CBK146561] | 107.845%

Look-ups from the list.
% of control remaining, COc1ccc(S(=O)(=O)N(C)CC(=O)O)cc1C [CBK267176] is entered as 123.99%
% of control remaining, CCc1nc2ccc(C(=O)NCCN3CCOCC3)cn2c1N(C)Cc1cc2ccccc2s1 [CBK146561] is entered as 107.845%
% of control remaining, O=c1[nH]c(=O)c2cc(S(=O)(=O)N3CCc4[nH]c5ccccc5c4C3)ccc2[nH]1 [CBK285949] is entered as 103.869%
% of control remaining, CSc1nnc(CC2CCN(C(=O)c3cccc(N)c3)CC2)n1C [CBK307339] is entered as 172.018%
% of control remaining, Cc1ccc(NC2=NC(C(=O)Nc3ccc(C)c(C)c3)CC(=O)N2)cc1 (stereo not drawn) [CBK266718] is entered as 116.859%

Going on with the list.

Row | SMILES | % of control remaining
53 | CN1CCN(S(=O)(=O)c2ccc(-c3cnc(N)c(-c4ccc(O)cc4)n3)cc2F)CC1 [CBK131449] | 116.367%
54 | Cc1cc(/C=C(\C#N)c2nc3ccccc3[nH]2)c(C)n1-c1ccc(C(=O)O)cc1 [CBK267262] | 165.581%
55 | CCCCN1CC(=O)C(c2nc3ccccc3[nH]2)=C1N [CBK287777] | 124.119%
56 | N/N=C1\C2CN3CCN(C2)CC1(Cc1ccccc1)C3 [CBK261977] | 99.8843%
57 | Cc1ccc(NC(=O)/C(C#N)=C/c2ccc(-c3ccccc3C(=O)O)o2)cc1Cl [CBK263208] | 114.755%
58 | O=C(CCCN1C(=O)/C(=C\c2cccs2)SC1=S)Nc1cccc(C(=O)O)c1 [CBK263636] | 120.132%
59 | COc1cc(CNc2nccnc2-c2ccc(F)cc2)cc(OC)c1OC [CBK037328] | 124.331%
60 | Cn1ncc(Cl)c1C1CCCCCN1C(=O)c1cc(C2CC2)on1 (stereo not drawn) [CBK284973] | 121.775%
61 | O=C(Nc1cc2ccccc2c(Br)n1)C(F)(F)F [CBK063301] | 104.24%
62 | CN1CCN(c2nc(NS(=O)(=O)c3ccc(C#N)cc3)cc3ccccc23)CC1 [CBK002977C] | 146.809%
63 | CC[C@H](Cn1nc(-c2cccs2)ccc1=O)NC(=O)C1CCC1 [CBK284295] | 125.953%
64 | COc1ccc(-c2ccccc2)cc1CN(Cc1ccc2c(c1)OCO2)CC(C)O (stereo not drawn) [CBK286471] | 109.282%
65 | CCOC(=O)c1cnn(-c2ccccc2)c1NS(=O)(=O)c1cccc(Cl)c1C [CBK024055] | 120.095%
66 | CC(=O)Nc1ccc(CNC(=O)c2cc(C)n(CC(F)(F)F)c2C)cc1 [CBK304523] | 133.565%
67 | Nc1c(C(=O)NCC2CCCO2)c2nc3ccccc3nc2n1C1CCCC1 (stereo not drawn) [CBK269217] | 68.9222%
68 | Cc1ccc(C)c(C(NC(=O)CCCn2ccnc2)c2ccncc2)c1 (stereo not drawn) [CBK281476] | 126.192%
69 | COc1cc(C(=O)N2CCC3(CC2)CC(=O)c2cc(-c4cccnc4)ccc2O3)cc(OC)c1C [CBK169606] | 72.6128%
70 | O=C1CC2(CCN(C(=O)C3CCCC3)CC2)Oc2ccccc21 [CBK283485] | 133.291%
71 | COCCSCc1cn2cc(Br)ccc2n1 [CBK306361] | 119.166%
72 | COC(=O)c1c(NC(=O)C(=O)NCc2ccco2)sc2c1CCCC2 [CBK269269] | 151.62%
73 | COc1cc(-c2nccnc2N2CCN(c3ccncc3)CC2)cc(OC)c1OC [CBK036847] | 182.217%
74 | Cc1nc(=O)c(-c2ccccc2)c(C)n1CCc1c[nH]cn1 [CBK287900] | 121.784%
75 | O=c1cc(NCCCN2CCN(Cc3ccccc3)CC2)c2ccccc2o1 [CBK011079] | 145.828%
76 | COc1cc(CNC(C)(C)CO)ccc1OCc1ccc(Cl)cc1 [CBK266433C] | 140.089%
77 | O=C(c1cnccn1)N1CCN(c2nc3c(F)cccc3s2)CC1 [CBK287722] | 114.413%
78 | CC(=O)NCCCCCC(=O)Nc1ccc(C(=O)O)cc1 [CBK287241] | 111.836%
